This assay relates to RAW 264.7. The experiment in a line: cell viability (MTT) relative to vehicle control; higher = more viable cells. The following applies: stimulus: HMGB1 5 ug/ml, 18 h.
Where [1] appears, read: compound concentration: 1 ug/ml.

“And” between values parts separate entries of the source, which are not always exact repeats. Equal values may be shown once. Where a name gives a salt, the structure may show the parent alone. ± gives the standard deviation of the averaged measurements. Some of the results follow. Most values come without repeats; read them as rough.

For 43 compounds, cell viability results are on record in the supplement of paper PMC3682954.

On to `CC(=Cc1ccc(C(=O)O)cc1)c1ccc2c(c1)C(C)(C)CCC2(C)C`, for which the cell viability (compound concentration: 3 uM) came to 103%.

Consider `O=C(O)CCCCCCCC(=O)O` [Azelaic acid], for which, where the note is “compound concentration: 3 uM”, the cell viability worked out at 103%.

Regarding `O=C(O)CCCCCCCC(=O)O`, the cell viability (compound concentration: 3 uM) is 101 ± 5.8%.

As to `CC(=O)OCC(=O)[C@@]1(O)CC[C@H]2[C@@H]3CCC4=CC(=O)CC[C@]4(C)[C@@]3(F)[C@@H](O)C[C@@]21C`, the cell viability (compound concentration: 3 uM) is 115%.

`CC(=O)OCC(=O)[C@@]1(O)CC[C@H]2[C@@H]3CCC4=CC(=O)CC[C@]4(C)[C@@]3(F)[C@@H](O)C[C@@]21C` [Fludrocortisone acetate]: where the note is “compound concentration: 3 uM”, the cell viability was 98.4%.

For `COC(=O)Nc1nc2cc(C(=O)c3cccs3)ccc2[nH]1` [Nocodazole], where the note is “compound concentration: 3 uM”, the cell viability is 63.8 ± 16%.

Turning to `COC(=O)Nc1nc2cc(C(=O)c3cccs3)ccc2[nH]1`, the cell viability (compound concentration: 3 uM) came to 111%.

On to `Cc1ccc(C(=O)c2ccc(CC(=O)O)n2C)cc1` [Tolmetin], for which the cell viability (compound concentration: 3 uM) was 97.2%.

As for `Cc1ccc(C(=O)c2ccc(CC(=O)O)n2C)cc1` [Tolmetin sodium salt dihydrate], under “compound concentration: 3 uM”, the cell viability amounted to 84.4%.

Regarding `Cc1ccc(C(=O)c2ccc(CC(=O)O)n2C)cc1`, the cell viability (compound concentration: 3 uM) amounted to 108%.

For `CCCCN(CCCC)CCCOC(=O)c1ccc(N)cc1` [Butacaine], for the setting “compound concentration: 3 uM”, the cell viability came to 89.2%.

Regarding `CCCCN(CCCC)CCCOC(=O)c1ccc(N)cc1`, the cell viability (compound concentration: 3 uM) was 102%.

As for `O=C(O)CN1C(=O)c2cccc3cccc(c23)C1=O`, the cell viability (compound concentration: 3 uM) is 107%.

On to `CC[N+](C)(CC)CCOC(=O)C1c2ccccc2Oc2ccccc21` [Methantheline bromide], for which the cell viability (compound concentration: 3 uM) was 94.7%.

For the compound `CC(=O)OCC(=O)[C@@]1(O)CC[C@H]2[C@@H]3CCC4=CC(=O)C=C[C@]4(C)[C@@]3(Cl)[C@@H](Cl)C[C@@]21C`, the cell viability (compound concentration: 3 uM) came out at 107%.

Turning to `CCN[C@H]1CN(CCCOC)S(=O)(=O)c2sc(S(N)(=O)=O)cc21` [Brinzolamide], the cell viability (compound concentration: 3 uM) stood at 88.2%.

Take `CC(=O)OCC(=O)[C@@]1(O)CC[C@H]2[C@@H]3CCC4=CC(=O)CC[C@]4(C)[C@H]3[C@@H](O)C[C@@]21C`: the cell viability (compound concentration: 3 uM) worked out at 109%.

With `CC(=O)OCC(=O)[C@@]1(O)CC[C@H]2[C@@H]3CCC4=CC(=O)CC[C@]4(C)[C@H]3[C@@H](O)C[C@@]21C` [Hydrocortisone 21-acetate], the cell viability (compound concentration: 3 uM) came out at 107%.

Turning to `CC(=O)OCC(=O)[C@@]1(O)CC[C@H]2[C@@H]3CCC4=CC(=O)CC[C@]4(C)[C@H]3[C@@H](O)C[C@@]21C` [Cortisol acetate], the cell viability (compound concentration: 3 uM) turned out to be 113%.

With `CN(C)CCC(c1ccc(Cl)cc1)c1ccccn1` (racemic) [(±)-Chlorpheniramine maleate], the cell viability (compound concentration: 3 uM) was found to be 105%.

As to `CC(C)c1c(C(=O)Nc2ccccc2)c(-c2ccccc2)c(-c2ccc(F)cc2)n1CC[C@@H](O)C[C@@H](O)CC(=O)O` [Atorvastatin], the cell viability (compound concentration: 3 uM) amounted to 124%.

For `CC(C)c1c(C(=O)Nc2ccccc2)c(-c2ccccc2)c(-c2ccc(F)cc2)n1CC[C@@H](O)C[C@@H](O)CC(=O)O`, the cell viability (compound concentration: 3 uM) turned out to be 121%.

As to `Cc1ncc(C[n+]2csc(CCO)c2C)c(N)n1`, the cell viability (compound concentration: 3 uM) amounted to 106%.

Regarding `C=CC(N)CCC(=O)O` (stereo not drawn) [Vigabatrin], the cell viability (compound concentration: 3 uM) was determined as 88.2%.

As to `C=CC(N)CCC(=O)O` (stereo not drawn), the cell viability (compound concentration: 3 uM) came out at 102%.

As for `CCCCCCCCCCCCCCCC(=O)OC/C=C(C)/C=C/C=C(C)/C=C/C1=C(C)CCCC1(C)C`, the cell viability (compound concentration: 3 uM) came out at 99.6%.

Take `NS(=O)(=O)c1cc(C2(O)NC(=O)c3ccccc32)ccc1Cl` (stereo not drawn): the cell viability (compound concentration: 3 uM) was found to be 106%.

On to `NS(=O)(=O)c1cc(C2(O)NC(=O)c3ccccc32)ccc1Cl` (stereo not drawn) [Chlorthalidone], for which, under “compound concentration: 3 uM”, the cell viability was determined as 85.6%.

As to `CC(Cc1cccc(C(F)(F)F)c1)NCCOC(=O)c1ccccc1` (stereo not drawn), the cell viability (compound concentration: 3 uM) came out at 102%.

Turning to `CC(Cc1cccc(C(F)(F)F)c1)NCCOC(=O)c1ccccc1` (stereo not drawn) [Benfluorex hydrochloride], the cell viability (compound concentration: 3 uM) was found to be 93.4%.

With `COc1cc(-c2oc3c(O)c(OC4OC(COC(C)=O)C(O)C(O)C4OC4OC(C)C(O)C(O)C4O)cc(O)c3c(=O)c2O)ccc1O` (stereo not drawn) [Haploside D], the cell viability under setting [1] is 108%.

Turning to `CCCc1cc(C(N)=S)ccn1`, the cell viability (compound concentration: 3 uM) came to 111%.

Consider `CCCc1cc(C(N)=S)ccn1` [Prothionamide], for which the cell viability (compound concentration: 3 uM) was 95.4 ± 7.5%.

`COc1ccccc1-c1oc2ccccc2c(=O)c1OC`: the cell viability under setting [1] was 99.9%.

For `CC(C)(C)NCC(O)COc1cccc2[nH]c(=O)[nH]c12` (racemic), where the note is “compound concentration: 3 uM”, the cell viability worked out at 102%.

Turning to `CC(=O)S[C@@H]1CC2=CC(=O)CC[C@]2(C)[C@H]2CC[C@@]3(C)[C@@H](CC[C@@]34CCC(=O)O4)[C@H]12`, the cell viability (compound concentration: 3 uM) is 106%.

For the compound `CC(=O)S[C@@H]1CC2=CC(=O)CC[C@]2(C)[C@H]2CC[C@@]3(C)[C@@H](CC[C@@]34CCC(=O)O4)[C@H]12` [Spironolactone], where the note is “compound concentration: 3 uM”, the cell viability is 104 ± 12%.

For the compound `NNCCc1ccccc1`, under “compound concentration: 3 uM”, the cell viability was 106% and 101%.

For `NNCCc1ccccc1` [Phenelzine sulfate], the cell viability (compound concentration: 3 uM) worked out at 105 ± 22%.

With `NC1(C(=O)O)CCCCC1` [1-Amino-1-cyclohexanecarboxylic acid hydrochloride], the cell viability (compound concentration: 3 uM) was 105%.

`C=C1CC[C@H](O)C/C1=C/C=C1\CCC[C@]2(C)[C@@H]([C@H](C)CCCC(C)C)CC[C@@H]12` [Cholecalciferol]: where the note is “compound concentration: 3 uM”, the cell viability stood at 140%.

On to `C=C1CC[C@H](O)C/C1=C/C=C1\CCC[C@]2(C)[C@@H]([C@H](C)CCCC(C)C)CC[C@@H]12`, for which, under “compound concentration: 3 uM”, the cell viability was found to be 103%.

Take `CN1CCN(CC/C=C2/c3ccccc3Sc3ccc(S(=O)(=O)N(C)C)cc32)CC1`: for the setting “compound concentration: 3 uM”, the cell viability worked out at 98.2%.
